Experiments:
[1] = Dissolution profile in FaSSGF (pH 1.60), ALEN-Cu complexation, UV-Vis; format: physicochemical; conditions: for dissolution rate (in words): FaSSGF pH 1.60; for maximum release of the ALEN content, complete dissolution profile: up to 20 min
[2] = Dissolution profile in PBS (pH 7.40), ALEN-Cu complexation, UV-Vis; format: physicochemical; conditions: for maximum release of the ALEN content (percent of ALEN dissolved), complete dissolution profile: up to 20 min; for dissolution rate (in words): PBS pH 7.40
Procedure: Dissolution profiles were performed via Copper (II) complexation with ALEN and quantified by measuring absorbance through UV-Vis spectroscopy. Dissolution profiles were recorded for ALEN sodium reagent, ALEN Sodium Tablets-USP (generic form of Fosamax®), ALEN-Ca forms I and II, and ALEN-Zn forms I and II, and ALEN-Mg. Dissolution tests were performed in 100 mL of PBS buffer (pH=7.40) and FaSSGF (pH=1.60), at 37° C. under constant stirring at 150 rpm. The absorbance of the soluble ALEN-Cu complex was measured at 231 nm in PBS and 225 nm in FaSSGF, against a reagent blank. Absorbance measurements were performed on an Agilent Technologies Cary Series UV-Vis Spectrophotometer, Cary 100 UV-Vis model; using the UV Cary Scan software version v.20.0.470. All measurements were performed with a 400-200 nm scan.
To generate the ALEN-Cu complex, 4 mL of the diluted ALEN solutions were transferred into a series of 25-mL volumetric flasks to achieve an ALEN-Cu concentration range of 0.008-0.11 mg/mL. To each flask, 20 mL of 2.5 mM CuSO4 solution was added, homogenized and completed to volume with nanopure water. The absorbance of the formed ALEN-Cu complex was measured at 231 nm against a reagent blank prepared by the addition of 4 mL PBS buffer and 20 mL of the CuSO4 solution in a 25-mL volumetric flask and completed to volume with nanopore water.
Dissolution profiles were recorded for alendronate sodium reagent (ALEN), Alendronate Sodium Tablets-USP (generic form of Fosamax®), ALEN-Ca form I, ALEN-Ca form II, ALEN-Zn form I, ALEN-Zn form II and ALEN-Mg. Dissolution tests were performed in 100 mL of PBS buffer (pH=7.40), controlling temperature at 37° C. and stirring at 150 rpm. For the alendronate-based coordination complexes, reagent and tablets, 70 mg of the solid were grinded using a mortar and pestle. The powder was added to the PBS solution at the beginning of the dissolution under stirring. Samples of 1.6 mL were collected after 0, 5, 10, 15, 20 and 25 s to record the dissolution for the deglutition profile. For the complete dissolution profile, samples of the exact volume amount were collected from 1-6 min, in one-minute intervals. After the six-minute period, samples for 10, 15 and 20 min were collected. After collection, the samples were filtrated using a PTFE filter. The filtered solutions were placed in 10 mL volumetric flasks. To produce the ALEN-Cu complex, 7.4 mL of the 2.5 mM CuSO4 solution was added and completed to volume with nanopure water. The absorbance of the formed ALEN-Cu complex was measured at 231 nm against a reagent blank prepared by the addition of filtered 1.6 mL PBS buffer in a 10-mL volumetric flask, with 7.4 mL of the 2.5 mM copper (II) sulfate solution and completed to volume with nanopure water. Absorbance measurements were performed on an Agilent Technologies Cary Series UV-Vis Spectrophotometer, Cary 100 UV-Vis model; using the UV Cary Scan software version v.20.0.470. All measurements were performed with a 400-200 nm scan.
Dissolution profiles were performed via copper (II) complexation with alendronate content from the synthesized pBioCPs and quantified by measuring absorbance through UV-Vis spectroscopy. Two standard stock solution of ALEN were prepared by dissolving 100 mg of the drug in a 100-mL volumetric flask with PBS and the other one with FaSSGF. More dilute solutions were obtained by appropriate dilution from these stock solutions. Accurately measured aliquots of the ALEN stock solutions were transferred into a series of 25-mL volumetric flasks to achieve a concentration range of 0.05-0.7 mg/mL. Each solution was completed to the 25-mL mark with PBS and FaSSGF respectively. A calibration curve of ALEN-Cu complex with a concentration range of 0.008-0.11 mg/mL in PBS and 0.006-0.084 mg/mL in FaSSGF was used for indirect alendronate quantification. […]

[3] = oral, reported in literature; cited from earlier work
[4] = FaSSGF pH 1.60, 37 °C, 150 rpm, 70 mg in 100 mL
[5] = PBS pH 7.40, 37 °C, 150 rpm, 70 mg in 100 mL

dissolution rate (in words) [1]	percent of the drug dissolved, early-stage dissolution ([1]; FaSSGF pH 1.60, 37 °C, 150 rpm, 70 mg in 100 mL, after 10 sec) [%]	maximum release of the ALEN content, complete dissolution profile [1, 4] [%]	percent of ALEN dissolved/released, early-stage dissolution ([2]; PBS pH 7.40, 37 °C, 150 rpm, 70 mg in 100 mL, after 25 sec) [%]	maximum release of the ALEN content (percent of ALEN dissolved), complete dissolution profile [2, 5] [%]	dissolution rate (in words) [2]	Structure (SMILES)	absorption of the BP in the intestines [3]
most rapid release	97	100	61	~80		NCCCC(O)(P(=O)(O)O)P(=O)(O)O [ALEN, Alendronate sodium trihydrate, reference compound]	up to 10%
				52	moderate dissolution rates	NCCCC(O)(P(=O)([O-])O)P(=O)([O-])O.O.[Ca+2] [ALEN-Ca form I]	
moderate to lower dissolution rates		66		43	lower dissolution rates	NCCCC(O)(P(=O)([O-])O)P(=O)([O-])O.O.[Zn+2] [ALEN-Zn form I]	

— patent publication US10479808B1, “Bisphosphonate-based coordination complexes as enhanced pharmaceutical formulations and method of preparing the same” (University of Puerto Rico, priority 2018, dated 2019)
